From PubChem BioAssay AID1634 (National Center for Advancing Translational Sciences (NCATS), 2009)
Screen size: about 260,000 compounds; about 150 (0.058%) were called active. These results got no clear call from the source, so the numbers are uncertain. Calls follow the shape of the dose curve; as a rule, active = well fitted inhibition curve with a large enough effect; inconclusive = small, poorly fitted or top-dose-only effect; inactive = no such curve, though single readings can be large or run the other way.

By UniProt entry, the sequences of proteins in these tests, tags left out.
UniProt P14618, whole entry: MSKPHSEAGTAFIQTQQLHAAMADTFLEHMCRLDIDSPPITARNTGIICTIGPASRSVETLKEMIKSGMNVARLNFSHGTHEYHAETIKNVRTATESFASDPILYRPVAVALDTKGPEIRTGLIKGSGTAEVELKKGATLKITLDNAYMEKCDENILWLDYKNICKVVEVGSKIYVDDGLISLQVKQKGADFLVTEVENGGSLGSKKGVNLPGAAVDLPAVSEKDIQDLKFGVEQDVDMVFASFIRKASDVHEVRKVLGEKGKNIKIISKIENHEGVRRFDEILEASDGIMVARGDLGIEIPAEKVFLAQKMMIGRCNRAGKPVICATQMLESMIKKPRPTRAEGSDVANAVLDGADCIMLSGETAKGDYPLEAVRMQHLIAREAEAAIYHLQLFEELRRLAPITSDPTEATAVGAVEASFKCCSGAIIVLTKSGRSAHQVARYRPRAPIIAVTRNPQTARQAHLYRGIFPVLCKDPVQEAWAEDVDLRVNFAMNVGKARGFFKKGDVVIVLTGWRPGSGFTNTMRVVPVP

Each compound was assayed against Pyruvate kinase PKM (Homo sapiens) (UniProt P14618) (assay: qHTS Assay for Inhibitors of Human Muscle isoform 2 Pyruvate Kinase). Settings: purified PKM2, ATP generation, Kinase-Glo luminescence.
Procedure: NIH Chemical Genomics Center [NCGC] Matthew G. Vander Heiden, M.D., Ph.D. [Harvard Medical School, 77 Avenue Louis Pasteur, Boston, MA 02115] […] ATP generation was detected in a coupled reaction by luciferase-mediated luminescence, an ATP-dependent process. […] The enzyme was assayed at an intermediate level of activity to screen for both inhibitors and activators.
NCGC Assay Protocol Summary: Three uL of substrate mix (at r.t.) in assay buffer (50 mM Imidazole pH7.2, 50 mM KCl, 7 mM MgCl2, 0.01% Tween 20, 0.05% BSA) was dispensed into white solid bottom 1,536 well microtiter plates so that the final concentrations of substrates in the assay were 0.1 mM ADP and 0.5 mM PEP. 23 nL of compound were delivered by a pin tool and 1 uL of enzyme mix in assay buffer (4 degree Celsius) was added. Plates were incubated at room temperature for 1 hour. Two uL of detection mix (Kinase-Glo, Promega; at 4 degree Celsius protected from light) was added and luminescence read by a ViewLux (Perkin Elmer) at 5 second exposure/plate. Data were normalized to the uninhibited and AC100 inhibition (no enzyme). To monitor activation, the first column contained a titration of the activator, NCGC00031955-01 (16-point 1:2 dilutions in duplicate starting at 57 uM) and the first 16 rows of column 4 contained 57 uM of NCGC00031955-01.
Also: nearly all actives have a fitted effect of over 60% in size.
Potency is read from the fitted curve at half-maximal effect.

SMILES	Potency
CP(=O)(OCCOc1ccccc1)OCCOc1ccccc1	inconclusive: 28.2 µM
